Test results: publication PMC10572892
Results are given in words; binding and its absence hold for the method and conditions named. Binding seen in cells or lysates may run through a third protein. Some entries that bind do so weakly or less than the wild type. For part of these data: Tags and fused reporters may be left off the sequences shown. Values belong to the substance of their own block, whether it stands above or below them.

Protein sequences, listed by entry. Tags and fused reporters are not part of them. Lines headed by an entry give the natural chain unless they say otherwise; changes in a name come on top. Residues count along the entry.
UniProt P35240: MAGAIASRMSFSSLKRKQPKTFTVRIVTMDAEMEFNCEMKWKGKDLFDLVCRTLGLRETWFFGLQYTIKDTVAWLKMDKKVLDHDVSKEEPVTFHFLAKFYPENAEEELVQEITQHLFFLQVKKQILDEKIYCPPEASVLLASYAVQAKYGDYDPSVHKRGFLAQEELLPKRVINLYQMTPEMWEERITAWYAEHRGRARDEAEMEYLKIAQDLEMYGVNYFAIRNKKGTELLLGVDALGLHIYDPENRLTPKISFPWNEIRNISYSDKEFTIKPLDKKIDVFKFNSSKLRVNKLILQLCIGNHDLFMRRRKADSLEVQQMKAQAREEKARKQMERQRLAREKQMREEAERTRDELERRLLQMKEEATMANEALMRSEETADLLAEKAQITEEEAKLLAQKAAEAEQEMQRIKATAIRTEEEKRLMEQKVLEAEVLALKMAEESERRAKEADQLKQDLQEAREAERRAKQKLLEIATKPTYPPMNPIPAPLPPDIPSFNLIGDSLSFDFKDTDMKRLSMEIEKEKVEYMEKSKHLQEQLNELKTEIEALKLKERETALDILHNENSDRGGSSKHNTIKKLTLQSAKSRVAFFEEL
GFP-Merlin FERM domain: residues 18-312 of P35240
FLAG-Merlin FERM domain: residues 22-311 of P35240
GFP-F3 subdomain of the Merlin FERM domain: residues 221-312 of P35240
UniProt O60331: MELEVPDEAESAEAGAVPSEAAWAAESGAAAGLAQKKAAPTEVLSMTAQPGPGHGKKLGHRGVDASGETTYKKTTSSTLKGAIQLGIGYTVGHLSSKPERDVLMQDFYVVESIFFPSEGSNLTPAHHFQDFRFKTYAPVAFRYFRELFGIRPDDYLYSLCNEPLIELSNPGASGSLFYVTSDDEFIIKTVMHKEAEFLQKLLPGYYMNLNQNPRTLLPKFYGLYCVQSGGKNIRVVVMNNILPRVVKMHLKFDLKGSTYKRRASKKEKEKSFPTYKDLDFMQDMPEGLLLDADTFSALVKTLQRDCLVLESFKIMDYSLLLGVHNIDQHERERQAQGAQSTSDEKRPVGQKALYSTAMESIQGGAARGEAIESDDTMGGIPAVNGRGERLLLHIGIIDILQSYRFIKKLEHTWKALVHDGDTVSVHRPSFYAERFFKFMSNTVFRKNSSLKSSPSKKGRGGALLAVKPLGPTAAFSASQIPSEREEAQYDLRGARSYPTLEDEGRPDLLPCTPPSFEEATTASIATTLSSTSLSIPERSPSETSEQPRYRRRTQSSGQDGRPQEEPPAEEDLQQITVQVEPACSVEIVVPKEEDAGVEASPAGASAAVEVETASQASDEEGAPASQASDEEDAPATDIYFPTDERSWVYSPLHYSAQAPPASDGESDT
UniProt P11142: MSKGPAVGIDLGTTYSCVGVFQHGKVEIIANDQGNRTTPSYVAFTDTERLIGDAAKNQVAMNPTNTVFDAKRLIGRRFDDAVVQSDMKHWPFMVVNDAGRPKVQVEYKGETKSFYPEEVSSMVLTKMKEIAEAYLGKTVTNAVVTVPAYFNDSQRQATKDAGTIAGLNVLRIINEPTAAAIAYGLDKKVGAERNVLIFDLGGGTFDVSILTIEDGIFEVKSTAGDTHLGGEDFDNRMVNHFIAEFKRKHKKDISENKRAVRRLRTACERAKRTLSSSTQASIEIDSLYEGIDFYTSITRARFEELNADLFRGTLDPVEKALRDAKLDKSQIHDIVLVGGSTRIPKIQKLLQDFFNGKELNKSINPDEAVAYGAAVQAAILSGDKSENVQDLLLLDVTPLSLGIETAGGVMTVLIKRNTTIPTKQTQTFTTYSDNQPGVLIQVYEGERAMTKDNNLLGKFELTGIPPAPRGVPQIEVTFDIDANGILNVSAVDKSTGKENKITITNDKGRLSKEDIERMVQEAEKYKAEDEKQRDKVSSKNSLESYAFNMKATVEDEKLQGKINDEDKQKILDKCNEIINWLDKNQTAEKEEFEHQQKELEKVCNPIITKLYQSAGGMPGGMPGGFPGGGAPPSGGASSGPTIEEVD

Columns and labels:
[1] = target: GFP-F3 subdomain of the Merlin FERM domain (UniProt P35240); experiment: co-IP; GFP-IP (anti-GFP antibody, protein A/G PLUS-Agarose, 4 °C) from lysates of transfected HEK293 cells; lysis buffer 50 mM Tris pH 7.4, 150 mM NaCl, 1% Triton X-100; Western blot; one panel without and with co-transfected Myc-PIP5Kγ90
[2] = target: GFP-Merlin FERM domain (UniProt P35240); experiment: as above
[3] = target: FLAG-Merlin WT (UniProt P35240); experiment: co-IP; FLAG-IP (anti-FLAG M2 affinity gel, 4 h, 4 °C) from lysates of transfected HEK293 or WT HEK293A cells; lysis buffer 50 mM Tris pH 7.4, 150 mM NaCl, 1% Triton X-100; Western blot; some panels with siCtrl or siLATS1, in Merlin KO or LATS1/2 KO HEK293A cells, or with co-transfected V5-Hsc70, HA-PIP5Kγ90 or GFP-PIP5Kγ90 WT
[4] = target: FLAG-Merlin FERM domain (UniProt P35240); experiment: as above
[5] = target: FLAG-PIP5Kγ90 (UniProt O60331); experiment: as above
[6] = target: HA-Merlin (UniProt P35240); experiment: co-IP; HA-IP (anti-HA antibody, protein A/G PLUS-Agarose, 4 °C) from lysates of transfected HEK293 cells; lysis buffer 50 mM Tris pH 7.4, 150 mM NaCl, 1% Triton X-100; Western blot
[7] = target: FLAG-Merlin WT (UniProt P35240); experiment: co-IP; FLAG-IP (anti-FLAG M2 affinity gel) from lysates of HEK293 cells co-transfected with FLAG-Merlin and GFP-PIP5Kγ90 KD; Western blot
[8] = target: endogenous PIP5Kγ (human (endogenous in HEK293)) (UniProt O60331); experiment: co-IP; IP of endogenous PIP5Kγ (anti-PIP5Kγ antibody or control IgG, 6 h, 4 °C, protein A/G PLUS-Agarose) from HEK293 cell lysates; Western blot of Hsc70
[9] = target: T1, HA-LATS1 (UniProt O95835); experiment: co-IP; HA-IP (anti-HA antibody, protein A/G PLUS-Agarose, 4 °C) from lysates of transfected HEK293 cells; lysis buffer 50 mM Tris pH 7.4, 150 mM NaCl, 1% Triton X-100; Western blot
T1 sequence: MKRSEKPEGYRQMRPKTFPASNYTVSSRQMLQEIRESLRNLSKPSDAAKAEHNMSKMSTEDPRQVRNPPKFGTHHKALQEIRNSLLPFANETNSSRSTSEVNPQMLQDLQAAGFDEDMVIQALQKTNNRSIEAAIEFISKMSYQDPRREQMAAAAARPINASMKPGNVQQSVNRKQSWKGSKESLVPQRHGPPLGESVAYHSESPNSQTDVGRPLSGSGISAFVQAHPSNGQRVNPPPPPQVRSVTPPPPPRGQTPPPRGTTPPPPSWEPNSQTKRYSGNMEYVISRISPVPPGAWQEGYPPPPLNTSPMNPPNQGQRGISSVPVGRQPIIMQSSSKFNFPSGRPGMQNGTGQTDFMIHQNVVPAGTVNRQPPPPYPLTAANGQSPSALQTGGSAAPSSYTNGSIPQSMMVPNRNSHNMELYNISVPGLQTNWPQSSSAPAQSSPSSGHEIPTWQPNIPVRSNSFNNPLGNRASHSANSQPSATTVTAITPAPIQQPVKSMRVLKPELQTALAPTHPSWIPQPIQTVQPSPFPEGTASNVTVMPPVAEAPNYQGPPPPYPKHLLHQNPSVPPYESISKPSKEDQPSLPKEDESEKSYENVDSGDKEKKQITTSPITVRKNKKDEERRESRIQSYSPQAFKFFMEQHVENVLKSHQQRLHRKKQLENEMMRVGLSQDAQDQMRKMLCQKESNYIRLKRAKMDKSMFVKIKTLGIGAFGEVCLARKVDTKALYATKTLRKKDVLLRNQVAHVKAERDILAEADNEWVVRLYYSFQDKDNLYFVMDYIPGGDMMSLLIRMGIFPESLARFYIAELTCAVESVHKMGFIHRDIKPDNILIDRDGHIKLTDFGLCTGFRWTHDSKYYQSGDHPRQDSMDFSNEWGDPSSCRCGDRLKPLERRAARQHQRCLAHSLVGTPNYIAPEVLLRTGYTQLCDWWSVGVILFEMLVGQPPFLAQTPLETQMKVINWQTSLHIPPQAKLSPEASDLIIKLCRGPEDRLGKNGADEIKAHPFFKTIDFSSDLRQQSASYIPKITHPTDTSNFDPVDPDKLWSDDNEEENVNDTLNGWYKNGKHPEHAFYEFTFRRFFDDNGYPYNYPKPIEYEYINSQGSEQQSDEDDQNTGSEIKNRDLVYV

Substance: HA-PIP5Kγ90 (from UniProt O60331 1-668) (enzyme)
- binding [1]: binds
- binding [2]: binds
- binding [3]: binds
- binding [4]: binds

Substance: Myc-PIP5Kγ90 (from UniProt O60331 1-668) (enzyme)
- binding [6]: binds

Substance: HA-Merlin (from UniProt P35240 1-595)
- binding [5]: binds

Substance: GFP-Merlin (from UniProt P35240 1-595)
- binding [5]: binds

Substance: GFP-tagged kinase-dead (KD) PIP5Kγ90 (K407N, K408N) (from UniProt O60331 1-668) (enzyme)
- binding [7]: binds

More lines, now with the values ahead:

- binding [5]: binds
Substance: V5-Hsc70 (from UniProt P11142 1-646)

- binding [8]: binds
- binding [5]: binds
Substance: endogenous Hsc70 (from UniProt P11142 1-646)

- binding [5]: binds
Substance: endogenous Merlin (from UniProt P35240 1-595)

- binding [6]: binds
- binding [9]: binds
Substance: endogenous PIP5Kγ (from UniProt O60331 1-668) (enzyme)

- binding [3]: binds
Substance: GFP-PIP5Kγ90 WT (from UniProt O60331 1-668) (enzyme)
